Consider 31 compounds from the supplement of paper PMC10735217.

The subject of the test is HEK293A TEAD-LUC reporter. The test can be described thus: TEAD-luciferase reporter activity (YAP activation), robust Z score vs plate; higher = stronger YAP/TEAD activation. The following applies: 24 h.

Several values for one entry are separate records, joined by “and”; a condition that tells them apart may be missing. Identical values can stand only once. Counter-ions that a name gives are not always drawn. This is one part of the list. Single values are uncertain here, since repeats match poorly.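 The human kidney-derived cells carry a stably integrated construct of eight TEAD-binding elements driving luciferase, read by luminescence in a drug-repurposing library screen. A compound counts as a hit when its signal is more than five robust Z scores above the plate mean.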

Take `OCC1O[C@H](O[C@@H]2C(CO)NCC(O)C2O)C(O)C(O)[C@@H]1O` (stereo partly specified): the TEAD-luciferase reporter activity runs as follows: (compound concentration: 200 nM) inactive: -0.391; (compound concentration: 2 uM) inactive: -0.833; (compound concentration: 10 uM) inactive: -2.54.

For the compound `CN(C)Cc1ccc(CSCCNc2nnccc2[N+](=O)[O-])o1`, the TEAD-luciferase reporter activity (compound concentration: 200 nM) is inactive: -0.672, the TEAD-luciferase reporter activity (compound concentration: 2 uM) is inactive: -0.547 and the TEAD-luciferase reporter activity (compound concentration: 10 uM) is inactive: 0.91.

Regarding `CCCC(=O)O[C@]1(C(=O)CSC(=O)CC)CC[C@H]2[C@@H]3CCC4=CC(=O)CC[C@]4(C)[C@H]3[C@@H](O)C[C@@]21C` [Butixocort propionate], the TEAD-luciferase reporter activity was inactive: 0.348 (compound concentration: 200 nM), inactive: 0.671 (compound concentration: 2 uM) and inactive: 2.19 (compound concentration: 10 uM).

With `CC(C)=CCC[C@]1(C)[C@@H](CC=C(C)C)C[C@]2(CC=C(C)C)C(=O)C(CC=C(C)C)=C(O)[C@@]1(C(=O)C(C)C)C2=O` [Hyperforin-DCHA], the TEAD-luciferase reporter activity (compound concentration: 2 uM) is inactive: -0.817.

As for `CC(C)=CCC[C@]1(C)[C@@H](CC=C(C)C)C[C@]2(CC=C(C)C)C(=O)C(CC=C(C)C)=C(O)[C@@]1(C(=O)C(C)C)C2=O`, the TEAD-luciferase reporter activity (compound concentration: 200 nM) was inactive: -0.731 and the TEAD-luciferase reporter activity (compound concentration: 10 uM) was inactive: 0.896.

Regarding `OC(CNc1ccccn1)c1ccccc1` (stereo unspecified), the TEAD-luciferase reporter activity is, setting by setting: (compound concentration: 200 nM) inactive: 0.16; (compound concentration: 2 uM) inactive: -0.492; (compound concentration: 10 uM) inactive: 0.0526.

With `C[C@@H](O)[C@@H]1NC(=O)[C@H](CCCCN)NC(=O)[C@@H](Cc2c[nH]c3ccccc23)NC(=O)[C@H](Cc2ccccc2)NC(=O)[C@@H](NC(=O)[C@H](N)Cc2ccccc2)CSSC[C@@H](C(=O)N[C@H](CO)[C@@H](C)O)NC1=O` [Octreotide], the TEAD-luciferase reporter activity is inactive: -1.06 (compound concentration: 200 nM) and inactive: 0.526 (compound concentration: 10 uM).

On to `C[C@@H](O)[C@@H]1NC(=O)[C@H](CCCCN)NC(=O)[C@@H](Cc2c[nH]c3ccccc23)NC(=O)[C@H](Cc2ccccc2)NC(=O)[C@@H](NC(=O)[C@H](N)Cc2ccccc2)CSSC[C@@H](C(=O)N[C@H](CO)[C@@H](C)O)NC1=O` [Octreotide acetate], for which the TEAD-luciferase reporter activity (compound concentration: 2 uM) is inactive: 0.113.

For `C#Cc1cccc(Nc2ncnc3cc(OCCOC)c(OCCOC)cc23)c1` [erlotinib], the TEAD-luciferase reporter activity runs as follows: (compound concentration: 200 nM) inactive: -0.677; (compound concentration: 2 uM) inactive: -1.62; (compound concentration: 10 uM) inactive: -1.47.

As to `COc1ccc(C(=O)N2CCC(C(=O)N3CCC(N4CCCC4=O)CC3)CC2)cc1`, the TEAD-luciferase reporter activity (compound concentration: 200 nM) is active: 13.6 and the TEAD-luciferase reporter activity (compound concentration: 10 uM) was inactive: 0.224.

For `Cc1nc(C(=O)NCC(=O)O)c(O)c2ccc(Oc3ccccc3)cc12` [Roxadustat], the TEAD-luciferase reporter activity was inactive: -1.24 (compound concentration: 200 nM), inactive: -1.7 (compound concentration: 2 uM) and inactive: 0.618 (compound concentration: 10 uM).

`Clc1ccc(COC(Cn2ccnc2)c2ccc(Cl)cc2Cl)cc1` (stereo unspecified) [Econazole nitrate]: the TEAD-luciferase reporter activity (compound concentration: 2 uM) was inactive: 1.08.

`Clc1ccc(COC(Cn2ccnc2)c2ccc(Cl)cc2Cl)cc1` (stereo unspecified): the TEAD-luciferase reporter activity is inactive: -1.51 and inactive: 0.596 (compound concentration: 200 nM); inactive: 1.72 (compound concentration: 2 uM); inactive: -1.12 and inactive: -0.472 (compound concentration: 10 uM).

Turning to `CN1CCN(C(=O)C2C3CCC(O3)C2C(=O)O)CC1` (stereo unspecified), the TEAD-luciferase reporter activity by setting is: (compound concentration: 200 nM) inactive: -0.925; (compound concentration: 10 uM) inactive: -0.0727.

In the case of `O=C(O)c1ccc(/N=N/c2ccc(O)c(C(=O)O)c2)cc1` [Salicylazobenzoic acid], the TEAD-luciferase reporter activity runs as follows: (compound concentration: 200 nM) inactive: -0.685; (compound concentration: 2 uM) inactive: 0.156; (compound concentration: 10 uM) inactive: -0.615.

Take `Cc1cc(S(N)(=O)=O)ccc1NC(=O)COc1ccc(Cl)cc1C(=O)c1cc(Cl)cc(C#N)c1`: the TEAD-luciferase reporter activity reads like this: (compound concentration: 200 nM) inactive: 2.6; (compound concentration: 2 uM) inactive: -1.38; (compound concentration: 10 uM) inactive: -0.118.

For the compound `CC(CNC(=O)c1ccccc1)C(=O)OCC(=O)C12OC(C)(C)O[C@@H]1C[C@H]1[C@@H]3CCC4=CC(=O)C=CC4(C)[C@@]3(F)[C@@H](O)CC12C` (stereo partly specified) [Triamcinolone benetonide], the TEAD-luciferase reporter activity by setting is: (compound concentration: 200 nM) inactive: 1.33; (compound concentration: 2 uM) inactive: -0.799; (compound concentration: 10 uM) inactive: 2.92.

Turning to `C[C@@H](O)c1nc2cnc3ccsc3c2n1[C@H]1CC[C@H](CC#N)OC1`, the TEAD-luciferase reporter activity reads like this: (compound concentration: 200 nM) inactive: -1.43; (compound concentration: 2 uM) inactive: 0.0743; (compound concentration: 10 uM) inactive: 1.61.

As to `CCC(=O)N1CC[C@H](Nc2ncnc3c2CN(c2cnc(OC)c(C(F)(F)F)c2)CC3)C1`, the TEAD-luciferase reporter activity is inactive: -0.341 (compound concentration: 200 nM), inactive: -1.03 (compound concentration: 2 uM) and inactive: 1.43 (compound concentration: 10 uM).

As for `C[C@@H](OC[C@@]1(c2ccccc2)CC[C@](C#N)(n2cn[nH]c2=O)CN1)c1cc(C(F)(F)F)cc(C(F)(F)F)c1`, the TEAD-luciferase reporter activity is, setting by setting: (compound concentration: 200 nM) inactive: -0.683; (compound concentration: 2 uM) inactive: 1.24; (compound concentration: 10 uM) inactive: 1.17.

Take `C=CCNC(=O)[C@H]1N(C(=O)[C@@H](O)[C@H](Cc2ccccc2)NC(=O)c2cccc(O)c2C)CSC1(C)C`: the TEAD-luciferase reporter activity (compound concentration: 200 nM) is inactive: -1.31, the TEAD-luciferase reporter activity (compound concentration: 2 uM) was inactive: 0.665 and the TEAD-luciferase reporter activity (compound concentration: 10 uM) was inactive: 0.198.

For the compound `CCC1(CC)COC(=O)NC1=O`, the TEAD-luciferase reporter activity is inactive: -0.958 (compound concentration: 200 nM), inactive: -2.67 (compound concentration: 2 uM) and inactive: -0.981 (compound concentration: 10 uM).

For `CN(C)[C@@H]1C(=O)C(C(N)=O)C(=O)[C@@]2(O)C(=O)C3C(=O)c4c(O)c(NC(=O)CN5CCCC5)cc(F)c4C[C@H]3C[C@@H]12` (stereo partly specified) [eravacycline], the TEAD-luciferase reporter activity is inactive: 0.594 (compound concentration: 200 nM), inactive: -0.055 (compound concentration: 2 uM) and active: 11.3 (compound concentration: 10 uM).

`CCCCc1ccc(O)cc1O` [Rucinol]: the TEAD-luciferase reporter activity is inactive: 0.0121 (compound concentration: 200 nM), active: 5.28 (compound concentration: 2 uM) and inactive: 1.38 (compound concentration: 10 uM).

On to `COc1ccc(CCN2CCN(CCCc3ccccc3)CC2)cc1OC` [cutamesine dihydrochloride], for which the TEAD-luciferase reporter activity was inactive: -0.677 (compound concentration: 200 nM), inactive: -1.44 (compound concentration: 2 uM) and inactive: 1.61 (compound concentration: 10 uM).

Turning to `COCCCN1CC[C@@H](CNC(=O)c2cc(Cl)c(N)c3c2OC(C)(C)C3)[C@H](O)C1` [Revexepride], the TEAD-luciferase reporter activity runs as follows: (compound concentration: 200 nM) inactive: -0.919; (compound concentration: 2 uM) inactive: 0.459; (compound concentration: 10 uM) inactive: 0.173.

For the compound `CCC(=O)N1Cc2ccccc2CC2(CCCN2CC2CCCC2)C1` (stereo unspecified), the TEAD-luciferase reporter activity reads like this: (compound concentration: 200 nM) active: 6.87; (compound concentration: 10 uM) inactive: 0.0539.

Turning to `COc1ccccc1Oc1c(NS(=O)(=O)c2ccc(C)cn2)nc(-c2ccncc2)nc1OC` [Avosentan], the TEAD-luciferase reporter activity runs as follows: (compound concentration: 200 nM) inactive: 1.07; (compound concentration: 2 uM) inactive: -1.13; (compound concentration: 10 uM) inactive: 2.57.

Take `CC(C)Oc1ccc(C(=O)N[C@H](CNC(=O)CN(C)C)Cc2ccc(-c3cn4cccc([C@H](C)O)c4n3)cc2)cc1Cl`: the TEAD-luciferase reporter activity (compound concentration: 200 nM) is inactive: -0.00807, the TEAD-luciferase reporter activity (compound concentration: 2 uM) is inactive: -0.666 and the TEAD-luciferase reporter activity (compound concentration: 10 uM) is inactive: 2.54.

Consider `Cc1cc(O)c2c(O)c3c(O)cccc3cc2c1`, for which the TEAD-luciferase reporter activity runs as follows: (compound concentration: 200 nM) inactive: -0.862; (compound concentration: 2 uM) inactive: -1.94; (compound concentration: 10 uM) inactive: 0.849.

Regarding `Nc1ncnc2c1ncn2CCOC[P@@]1(=O)OCC[C@@H](c2cccc(Cl)c2)O1` [Pradefovir], the TEAD-luciferase reporter activity runs as follows: (compound concentration: 200 nM) inactive: -0.126; (compound concentration: 10 uM) inactive: 0.024.
